In the assay the target is T1, mammalian-derived and heparan-sulfated recombinant GPC4-WT (soluble, lacking a GPI-anchor) (human) (UniProt O75487).
T1 sequence (chain, heparan sulfate chains): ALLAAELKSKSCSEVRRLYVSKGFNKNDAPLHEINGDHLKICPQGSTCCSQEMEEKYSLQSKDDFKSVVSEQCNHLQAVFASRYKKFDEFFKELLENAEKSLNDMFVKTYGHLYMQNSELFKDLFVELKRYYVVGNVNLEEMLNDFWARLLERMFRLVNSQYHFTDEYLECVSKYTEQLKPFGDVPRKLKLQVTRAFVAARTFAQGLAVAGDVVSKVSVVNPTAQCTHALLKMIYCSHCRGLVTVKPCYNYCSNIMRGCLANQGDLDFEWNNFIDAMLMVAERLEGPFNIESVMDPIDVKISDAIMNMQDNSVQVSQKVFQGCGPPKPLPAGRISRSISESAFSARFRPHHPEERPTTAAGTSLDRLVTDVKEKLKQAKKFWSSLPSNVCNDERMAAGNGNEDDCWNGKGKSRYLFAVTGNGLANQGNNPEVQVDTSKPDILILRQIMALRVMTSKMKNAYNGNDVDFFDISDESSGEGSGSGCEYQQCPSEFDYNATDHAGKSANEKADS
Nature of the assay: cross-linking; lysine crosslinking with disuccinimidyl sulfoxide (DSSO) of recombinant purified proteins in solution; both purified.

Amino acid sequences for entries named in this document (tags omitted). Residues count along the entry.
UniProt P02649, residues 19-317: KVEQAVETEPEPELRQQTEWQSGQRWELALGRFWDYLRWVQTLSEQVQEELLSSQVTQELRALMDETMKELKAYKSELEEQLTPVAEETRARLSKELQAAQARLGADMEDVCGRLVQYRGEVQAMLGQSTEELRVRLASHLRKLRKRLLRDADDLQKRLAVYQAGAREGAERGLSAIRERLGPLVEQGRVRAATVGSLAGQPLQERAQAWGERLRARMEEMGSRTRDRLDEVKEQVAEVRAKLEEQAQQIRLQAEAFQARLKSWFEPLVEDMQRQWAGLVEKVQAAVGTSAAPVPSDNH

No constants are given. Whether binding was seen depends on the method and setting.

For “human his-tagged full-length APOE3, mammalian-derived, lipidated (from UniProt P02649 19-317)”, the binding entry is recorded as “no binding”.

These data come from article PMC12398132.
